{"sequences": {"note": "Chains of the proteins cited; added tags and fusions are not shown. Lines headed by an entry give the natural chain unless they say otherwise; changes in a name come on top.", "UniProt Q86TM6": "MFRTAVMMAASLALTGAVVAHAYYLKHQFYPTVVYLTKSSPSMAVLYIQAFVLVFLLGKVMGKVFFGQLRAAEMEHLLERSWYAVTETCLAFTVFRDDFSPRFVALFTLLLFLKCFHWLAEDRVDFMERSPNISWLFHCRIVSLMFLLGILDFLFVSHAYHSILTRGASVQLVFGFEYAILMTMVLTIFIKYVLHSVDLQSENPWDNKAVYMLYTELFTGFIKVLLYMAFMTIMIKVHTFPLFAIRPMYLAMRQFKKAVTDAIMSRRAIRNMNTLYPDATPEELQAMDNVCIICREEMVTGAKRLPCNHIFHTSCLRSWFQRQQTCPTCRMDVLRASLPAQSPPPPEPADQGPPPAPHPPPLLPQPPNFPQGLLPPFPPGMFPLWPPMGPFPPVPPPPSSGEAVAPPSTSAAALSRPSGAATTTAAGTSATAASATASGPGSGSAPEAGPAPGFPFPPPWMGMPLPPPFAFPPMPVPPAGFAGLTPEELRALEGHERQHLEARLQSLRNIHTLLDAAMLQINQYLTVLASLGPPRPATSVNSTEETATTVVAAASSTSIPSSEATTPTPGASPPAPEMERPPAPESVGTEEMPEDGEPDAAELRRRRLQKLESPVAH"}, "source": "patent US20150330981A1", "about": "(published 2015)", "key": {"[1]": {"biological_target": "T1, HA PGC-1β (full-length mouse PGC-1β with HA tag) (mouse) (UniProt Q8VHJ7)", "T1 sequence (looked up)": "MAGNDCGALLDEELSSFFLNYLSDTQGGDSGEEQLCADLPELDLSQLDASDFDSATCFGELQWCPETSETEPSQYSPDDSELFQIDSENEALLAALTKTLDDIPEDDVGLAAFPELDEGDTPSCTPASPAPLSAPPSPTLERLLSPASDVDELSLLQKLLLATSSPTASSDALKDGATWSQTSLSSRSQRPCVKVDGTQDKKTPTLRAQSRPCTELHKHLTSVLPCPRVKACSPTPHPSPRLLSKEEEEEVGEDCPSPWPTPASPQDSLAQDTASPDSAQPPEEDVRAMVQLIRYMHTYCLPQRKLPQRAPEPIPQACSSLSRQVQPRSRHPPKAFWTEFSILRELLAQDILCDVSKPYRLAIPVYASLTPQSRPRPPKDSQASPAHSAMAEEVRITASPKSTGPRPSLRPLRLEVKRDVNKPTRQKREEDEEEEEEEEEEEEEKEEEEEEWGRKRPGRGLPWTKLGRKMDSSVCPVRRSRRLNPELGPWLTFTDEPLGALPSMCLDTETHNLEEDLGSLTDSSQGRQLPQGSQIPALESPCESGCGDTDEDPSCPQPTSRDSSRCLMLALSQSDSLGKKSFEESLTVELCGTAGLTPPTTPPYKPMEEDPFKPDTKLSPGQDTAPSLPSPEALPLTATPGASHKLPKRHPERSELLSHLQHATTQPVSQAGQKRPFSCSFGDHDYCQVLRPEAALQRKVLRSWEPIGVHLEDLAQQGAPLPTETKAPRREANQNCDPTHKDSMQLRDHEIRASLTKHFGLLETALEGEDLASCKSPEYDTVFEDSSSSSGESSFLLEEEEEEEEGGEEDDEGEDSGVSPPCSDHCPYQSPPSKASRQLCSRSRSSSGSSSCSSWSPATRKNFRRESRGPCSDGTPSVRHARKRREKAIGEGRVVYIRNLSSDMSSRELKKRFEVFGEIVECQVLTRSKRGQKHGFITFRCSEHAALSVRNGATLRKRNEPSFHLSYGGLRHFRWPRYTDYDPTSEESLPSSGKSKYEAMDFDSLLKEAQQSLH", "assay": "GST pull-down, Western blot (legend of FIG. 5)"}, "[2]": {"biological_target": "T1, HA PGC-1β (full-length mouse PGC-1β with HA tag) (mouse)", "assay": "GST pull-down of in vitro translated HA PGC-1β with GST-fused synoviolin fragments, anti-HA Western blot"}, "[3]": {"biological_target": "T1, HA PGC-1β (full-length mouse PGC-1β with HA tag) (mouse)", "assay": "co-immunoprecipitation with anti-FLAG from HEK-293T extract, anti-HA Western blot"}, "[4]": {"biological_target": "T1, HA PGC-1β (full-length mouse PGC-1β with HA tag) (mouse)", "assay": "co-immunoprecipitation, Western blot (legend of FIG. 6A)"}, "[5]": {"biological_target": "T2, endogenous PGC-1β in whole cell extract from HEK-293 (UniProt Q86YN6)", "T2 sequence (looked up)": "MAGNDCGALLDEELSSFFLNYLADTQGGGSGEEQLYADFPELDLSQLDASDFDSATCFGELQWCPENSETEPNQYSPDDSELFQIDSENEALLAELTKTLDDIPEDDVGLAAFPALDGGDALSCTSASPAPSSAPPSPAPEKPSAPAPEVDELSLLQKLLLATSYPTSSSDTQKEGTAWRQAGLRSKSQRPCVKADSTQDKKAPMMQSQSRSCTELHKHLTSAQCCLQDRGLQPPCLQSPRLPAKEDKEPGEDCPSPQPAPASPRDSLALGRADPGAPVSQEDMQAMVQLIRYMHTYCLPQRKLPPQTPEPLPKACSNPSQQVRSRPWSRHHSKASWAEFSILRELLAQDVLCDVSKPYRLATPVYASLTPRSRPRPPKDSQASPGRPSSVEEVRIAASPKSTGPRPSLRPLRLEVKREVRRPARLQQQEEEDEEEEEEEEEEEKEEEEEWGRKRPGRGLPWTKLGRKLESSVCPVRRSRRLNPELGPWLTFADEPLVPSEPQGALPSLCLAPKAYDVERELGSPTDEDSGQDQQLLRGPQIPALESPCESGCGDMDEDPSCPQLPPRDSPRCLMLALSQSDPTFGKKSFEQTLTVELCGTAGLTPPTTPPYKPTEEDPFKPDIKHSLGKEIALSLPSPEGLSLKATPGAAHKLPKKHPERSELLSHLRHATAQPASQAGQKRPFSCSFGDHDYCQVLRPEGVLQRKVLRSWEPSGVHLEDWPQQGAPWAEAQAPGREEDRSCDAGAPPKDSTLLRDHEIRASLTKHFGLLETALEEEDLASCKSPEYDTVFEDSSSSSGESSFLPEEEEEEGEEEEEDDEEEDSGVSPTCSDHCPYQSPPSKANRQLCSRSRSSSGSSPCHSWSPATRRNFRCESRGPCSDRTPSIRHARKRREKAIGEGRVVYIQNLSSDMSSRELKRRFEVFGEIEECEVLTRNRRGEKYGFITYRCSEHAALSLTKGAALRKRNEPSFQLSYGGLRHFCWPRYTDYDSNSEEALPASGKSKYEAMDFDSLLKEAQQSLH", "assay": "immunoprecipitation with anti-synoviolin antibody from HEK-293 extract, anti-PGC-1β immunoblot"}, "[6]": {"biological_target": "T2, endogenous PGC-1β in whole cell extract from HEK-293", "assay": "co-immunoprecipitation, Western blot (legend of FIG. 6B)"}}, "note": "Results are given in words; binding and its absence hold for the method and conditions named. For part of these data: In cells and extracts the contact can be indirect. Some results given as binding are weak or reduced against the parent protein; the word gives no strength. For part of these data: Sequences can lack the tags named with a protein.", "data": [{"substance": "SyU domain of synoviolin (236 to 270 amino acid sequences) fused to GST (from UniProt Q86TM6 236-270) (enzyme)", "values": [{"measurement": "binding", "setting": "[1]", "result": "binds"}, {"measurement": "binding", "setting": "[2]", "result": "binds"}]}, {"substance": "synoviolin with FLAG tag (SYVN1/FLAG) (from UniProt Q86TM6 1-617) (enzyme)", "values": [{"measurement": "binding", "setting": "[3]", "result": "binds"}, {"measurement": "binding", "setting": "[4]", "result": "binds"}]}, {"substance": "synoviolin in whole cell extract from HEK-293 (from UniProt Q86TM6 1-617) (enzyme)", "values": [{"measurement": "binding", "setting": "[5]", "result": "binds"}, {"measurement": "binding", "setting": "[6]", "result": "binds"}]}]}
